Some of the results follow. Repeats are few or missing, and single values can be far off.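 Cells were imaged in 1,536-well plates, and nuclei stained with an antibody against cleaved PARP were counted against all DNA-stained nuclei to give the apoptosis fraction. Screening doses were chosen to leave most cells alive, and resting and induced cleaved-PARP levels differ strongly between cell lines.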

The test system of one assay is SkMel30. The assay is described as follows: cleaved PARP positive nuclei fraction relative to DMSO control; melanoma cells; higher = more apoptosis. To be noted: library dose: low library concentration; 72 h.
Regarding `COc1cc(Nc2ncc(F)c(Nc3ccc4c(n3)NC(=O)C(C)(C)O4)n2)cc(OC)c1OC` [Tamatinib] + O=C(Oc1ccc([N+](=O)[O-])cc1)N1CCC(C(O)(c2ccc3c(c2)OCO3)c2ccc3c(c2)OCO3)CC1 [JZL184] (first compound 0.4 µM, partner dose 1 µM), the “cleaved PARP positive nuclei fraction” value was found to be 167%.

For `COc1cc2ncnc(Nc3ccc(Oc4ccccc4)cc3)c2cc1OC` + O=C(Oc1ccc([N+](=O)[O-])cc1)N1CCC(C(O)(c2ccc3c(c2)OCO3)c2ccc3c(c2)OCO3)CC1 [JZL184] (first compound 2 µM, partner dose 1 µM), the “cleaved PARP positive nuclei fraction” value stood at 148%.

`C/C(O)=C(\C#N)C(=O)Nc1cc(Br)ccc1Br` + O=C(Oc1ccc([N+](=O)[O-])cc1)N1CCC(C(O)(c2ccc3c(c2)OCO3)c2ccc3c(c2)OCO3)CC1 [JZL184] (first compound 2 µM, partner dose 1 µM): the “cleaved PARP positive nuclei fraction” value came to 144%.

Take `C/C(O)=C(\C#N)C(=O)Nc1cc(Br)ccc1Br` + CC(C)CCN1c2nc(Nc3cc(F)c(O)c(F)c3)ncc2N(C)C(=O)C1C [BID1870] (first compound 2 µM, partner dose 0.2 µM): the “cleaved PARP positive nuclei fraction” value was 160%.

Turning to `N#Cc1c(O)c2c(-c3ccc(-c4ccccc4O)cc3)csc2[nH]c1=O` + C/C(O)=C(\C#N)C(=O)Nc1cc(Br)ccc1Br [LFM-A13] (first compound 2 µM, partner dose 2 µM), the “cleaved PARP positive nuclei fraction” value stood at 30.6%.

Turning to `C[C@]12O[C@H](C[C@]1(O)CO)n1c3ccccc3c3c4c(c5c6ccccc6n2c5c31)CNC4=O` [Lestaurtinib] + C[C@@H]1CCN(C(=O)CC#N)C[C@@H]1N(C)c1ncnc2[nH]ccc12 [CP690550] (first compound 0.004 µM, partner dose 1 µM), the “cleaved PARP positive nuclei fraction” value was 81.9%.

`Cc1ccc(NC(=O)c2cccc(N(C)C)c2)cc1NC(=O)c1ccc(O)cc1` + C/C(O)=C(\C#N)C(=O)Nc1cc(Br)ccc1Br [LFM-A13] (first compound 2 µM, partner dose 2 µM): the “cleaved PARP positive nuclei fraction” value was determined as 53.1%.

In the next assay the test system is SkMel5. The description is as above. Conditions: library dose: low library concentration; 72 h.
Take `C[C@]12O[C@H](C[C@]1(O)CO)n1c3ccccc3c3c4c(c5c6ccccc6n2c5c31)CNC4=O` [Lestaurtinib] + CCN(CC)CCCCNc1ncc2cc(-c3cc(OC)cc(OC)c3)c(NC(=O)NC(C)(C)C)nc2n1 [PD173074] (first compound 0.004 µM, partner dose 0.1 µM): the “cleaved PARP positive nuclei fraction” value was determined as 34.8%.

Regarding `N#Cc1c(O)c2c(-c3ccc(-c4ccccc4O)cc3)csc2[nH]c1=O` + O=C(Oc1ccc([N+](=O)[O-])cc1)N1CCC(C(O)(c2ccc3c(c2)OCO3)c2ccc3c(c2)OCO3)CC1 [JZL184] (first compound 2 µM, partner dose 1 µM), the “cleaved PARP positive nuclei fraction” value was determined as 75.9%.

Turning to `C[C@]12O[C@H](C[C@]1(O)CO)n1c3ccccc3c3c4c(c5c6ccccc6n2c5c31)CNC4=O` [Lestaurtinib] + O=c1cc(-c2cccc3c2Sc2ccccc2S3)oc(N2CCOCC2)c1 [KU55933] (first compound 0.004 µM, partner dose 1 µM), the “cleaved PARP positive nuclei fraction” value was found to be 73.3%.

`CCc1ccc(CCOc2ccc(CC3SC(=O)NC3=O)cc2)nc1` (stereo unspecified) [pioglitazone] + O=C(Oc1ccc([N+](=O)[O-])cc1)N1CCC(C(O)(c2ccc3c(c2)OCO3)c2ccc3c(c2)OCO3)CC1 [JZL184] (first compound 2 µM, partner dose 1 µM): the “cleaved PARP positive nuclei fraction” value was 40.6%.

Regarding `COc1cc2c(Oc3ccc4[nH]c(C)cc4c3F)ncnc2cc1OCCCN1CCCC1` [cediranib] + Cc1cc(SCc2sc(-c3ccc(C(F)(F)F)c(F)c3)nc2C)ccc1OCC(=O)O [GW0742] (first compound 0.4 µM, partner dose 2 µM), the “cleaved PARP positive nuclei fraction” value was determined as 188%.

For `Cc1cc(SCc2sc(-c3ccc(C(F)(F)F)c(F)c3)nc2C)ccc1OCC(=O)O` + O=C(Oc1ccc([N+](=O)[O-])cc1)N1CCC(C(O)(c2ccc3c(c2)OCO3)c2ccc3c(c2)OCO3)CC1 [JZL184] (first compound 2 µM, partner dose 1 µM), the “cleaved PARP positive nuclei fraction” value worked out at 98%.

Take `Cc1cc(SCc2sc(-c3ccc(C(F)(F)F)c(F)c3)nc2C)ccc1OCC(=O)O` + COc1cc(N2CCC(N3CCN(C)CC3)CC2)ccc1Nc1ncc(Cl)c(Nc2ccccc2S(=O)(=O)C(C)C)n1 [NVP-TAE684] (first compound 2 µM, partner dose 0.08 µM): the “cleaved PARP positive nuclei fraction” value turned out to be 57.9%.

For the compound `C[C@]12O[C@H](C[C@]1(O)CO)n1c3ccccc3c3c4c(c5c6ccccc6n2c5c31)CNC4=O` [Lestaurtinib] + COC(=O)c1sccc1S(=O)(=O)Nc1ccc(Nc2ccccc2)cc1OC [GSK0660] (first compound 0.004 µM, partner dose 1 µM), the “cleaved PARP positive nuclei fraction” value amounted to 69.4%.

In the case of `C[C@]12O[C@H](C[C@]1(O)CO)n1c3ccccc3c3c4c(c5c6ccccc6n2c5c31)CNC4=O` [Lestaurtinib] + CC1(C)NC(=O)N(c2ccc([N+](=O)[O-])c(C(F)(F)F)c2)C1=O [nilutamide] (first compound 0.004 µM, partner dose 1 µM), the “cleaved PARP positive nuclei fraction” value is 56.7%.

As for `O=C1NC(=O)/C(=C/c2ccc(-c3ccc(F)cc3O)o2)S1` + O=C(Oc1ccc([N+](=O)[O-])cc1)N1CCC(C(O)(c2ccc3c(c2)OCO3)c2ccc3c(c2)OCO3)CC1 [JZL184] (first compound 1 µM, partner dose 1 µM), the “cleaved PARP positive nuclei fraction” value came to 59.2%.

Consider `Oc1cc(-c2nc(-c3ccccc3)[nH]c2-c2ccncc2)ccc1Cl` + O=C(Oc1ccc([N+](=O)[O-])cc1)N1CCC(C(O)(c2ccc3c(c2)OCO3)c2ccc3c(c2)OCO3)CC1 [JZL184] (first compound 0.2 µM, partner dose 1 µM), for which the “cleaved PARP positive nuclei fraction” value worked out at 117%.

For the compound `C[C@]12O[C@H](C[C@]1(O)CO)n1c3ccccc3c3c4c(c5c6ccccc6n2c5c31)CNC4=O` [Lestaurtinib] + O=S(=O)(c1ccccc1)N(CC(F)(F)F)c1ccc(C(O)(C(F)(F)F)C(F)(F)F)cc1 [T0901317] (first compound 0.004 µM, partner dose 1.4 µM), the “cleaved PARP positive nuclei fraction” value came to 155%.

For the compound `NCC(=O)Nc1ccc(-n2nc(C(F)(F)F)cc2-c2ccc3c(ccc4ccccc43)c2)cc1` + O=C(Oc1ccc([N+](=O)[O-])cc1)N1CCC(C(O)(c2ccc3c(c2)OCO3)c2ccc3c(c2)OCO3)CC1 [JZL184] (first compound 1 µM, partner dose 1 µM), the “cleaved PARP positive nuclei fraction” value stood at 56.7%.

As for `C[C@@H]1CCN(C(=O)CC#N)C[C@@H]1N(C)c1ncnc2[nH]ccc12` + C/C(O)=C(\C#N)C(=O)Nc1cc(Br)ccc1Br [LFM-A13] (first compound 1 µM, partner dose 2 µM), the “cleaved PARP positive nuclei fraction” value came out at 83%.

Turning to `C[As](C)SC[C@H](NC(=O)CC[C@H](N)C(=O)O)C(=O)NCC(=O)O` [Darinaparsin] + O=C(Nc1ccccc1)c1cc([N+](=O)[O-])ccc1Cl [GW9662] (first compound 0.4 µM, partner dose 2 µM), the “cleaved PARP positive nuclei fraction” value was 65.4%.

As for `C[C@]12O[C@H](C[C@]1(O)CO)n1c3ccccc3c3c4c(c5c6ccccc6n2c5c31)CNC4=O` [Lestaurtinib] + O=C(O)c1ccc(-c2c[nH]c3ncc(-c4ccccc4)cc23)cc1C1CCCC1 [GSK650394] (first compound 0.004 µM, partner dose 0.16 µM), the “cleaved PARP positive nuclei fraction” value was found to be 44.2%.

As to `C[C@]12O[C@H](C[C@]1(O)CO)n1c3ccccc3c3c4c(c5c6ccccc6n2c5c31)CNC4=O` [Lestaurtinib] + Oc1cc(-c2nc(-c3ccccc3)[nH]c2-c2ccncc2)ccc1Cl [L779450] (first compound 0.004 µM, partner dose 0.2 µM), the “cleaved PARP positive nuclei fraction” value was 64.3%.

For `COc1ccc2c(c1)CCC1C2CCC2(C)C(NCCCCCCN3C(=O)C=CC3=O)CCC12` (stereo unspecified) + C/C(O)=C(\C#N)C(=O)Nc1cc(Br)ccc1Br [LFM-A13] (first compound 0.4 µM, partner dose 2 µM), the “cleaved PARP positive nuclei fraction” value was 61.9%.

On to `Cc1cc(SCc2sc(-c3ccc(C(F)(F)F)c(F)c3)nc2C)ccc1OCC(=O)O` + C/C(O)=C(\C#N)C(=O)Nc1cc(Br)ccc1Br [LFM-A13] (first compound 2 µM, partner dose 2 µM), for which the “cleaved PARP positive nuclei fraction” value was 52.7%.

In the case of `COC(=O)c1sccc1S(=O)(=O)Nc1ccc(Nc2ccccc2)cc1OC` + C/C(O)=C(\C#N)C(=O)Nc1cc(Br)ccc1Br [LFM-A13] (first compound 1 µM, partner dose 2 µM), the “cleaved PARP positive nuclei fraction” value was 131%.

Take `O=C(O)c1ccc(-c2c[nH]c3ncc(-c4ccccc4)cc23)cc1C1CCCC1` + O=C(Oc1ccc([N+](=O)[O-])cc1)N1CCC(C(O)(c2ccc3c(c2)OCO3)c2ccc3c(c2)OCO3)CC1 [JZL184] (first compound 0.16 µM, partner dose 1 µM): the “cleaved PARP positive nuclei fraction” value came out at 29.1%.

Take `C[C@@H]1CCN(C(=O)CC#N)C[C@@H]1N(C)c1ncnc2[nH]ccc12` + Cc1cc(SCc2sc(-c3ccc(C(F)(F)F)c(F)c3)nc2C)ccc1OCC(=O)O [GW0742] (first compound 1 µM, partner dose 2 µM): the “cleaved PARP positive nuclei fraction” value is 52.1%.

As for `O=C(Nc1cccc(Cl)c1)Nc1ncc(CCNc2ncnc3ccsc23)s1` + Cc1cc(SCc2sc(-c3ccc(C(F)(F)F)c(F)c3)nc2C)ccc1OCC(=O)O [GW0742] (first compound 0.0008 µM, partner dose 2 µM), the “cleaved PARP positive nuclei fraction” value is 135%.

Consider `C[C@]12O[C@H](C[C@]1(O)CO)n1c3ccccc3c3c4c(c5c6ccccc6n2c5c31)CNC4=O` [Lestaurtinib] + COc1cc2ncnc(Nc3ccc(Oc4ccccc4)cc3)c2cc1OC [SrcI1] (first compound 0.004 µM, partner dose 2 µM), for which the “cleaved PARP positive nuclei fraction” value was determined as 143%.

The values are drawn from the supplement of paper PMC4604168 (melanoma cell lines).
